Reference: the supplement of paper PMC12819154, “High-throughput peptide-centric local stability assay extends protein–ligand identification to membrane proteins, tissues and bacteria” (Nature Structural & Molecular Biology, 2025)
This is one part of the list. Small differences around the control level are noise.

By UniProt entry, the sequences of proteins in these tests, tags left out. Where a name states a change or a piece, a line headed by the entry shows the natural chain unless it says otherwise.
UniProt Q8IV48: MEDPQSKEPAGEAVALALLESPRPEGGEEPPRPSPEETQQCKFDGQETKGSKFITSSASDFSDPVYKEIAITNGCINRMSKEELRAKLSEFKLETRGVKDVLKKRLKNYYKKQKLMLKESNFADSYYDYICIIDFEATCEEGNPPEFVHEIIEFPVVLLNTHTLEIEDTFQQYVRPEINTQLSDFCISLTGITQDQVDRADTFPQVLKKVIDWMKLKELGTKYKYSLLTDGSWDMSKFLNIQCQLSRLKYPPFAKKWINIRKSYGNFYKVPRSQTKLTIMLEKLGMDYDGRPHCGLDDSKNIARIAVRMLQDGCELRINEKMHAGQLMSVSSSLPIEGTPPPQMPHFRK
UniProt Q8IWZ3: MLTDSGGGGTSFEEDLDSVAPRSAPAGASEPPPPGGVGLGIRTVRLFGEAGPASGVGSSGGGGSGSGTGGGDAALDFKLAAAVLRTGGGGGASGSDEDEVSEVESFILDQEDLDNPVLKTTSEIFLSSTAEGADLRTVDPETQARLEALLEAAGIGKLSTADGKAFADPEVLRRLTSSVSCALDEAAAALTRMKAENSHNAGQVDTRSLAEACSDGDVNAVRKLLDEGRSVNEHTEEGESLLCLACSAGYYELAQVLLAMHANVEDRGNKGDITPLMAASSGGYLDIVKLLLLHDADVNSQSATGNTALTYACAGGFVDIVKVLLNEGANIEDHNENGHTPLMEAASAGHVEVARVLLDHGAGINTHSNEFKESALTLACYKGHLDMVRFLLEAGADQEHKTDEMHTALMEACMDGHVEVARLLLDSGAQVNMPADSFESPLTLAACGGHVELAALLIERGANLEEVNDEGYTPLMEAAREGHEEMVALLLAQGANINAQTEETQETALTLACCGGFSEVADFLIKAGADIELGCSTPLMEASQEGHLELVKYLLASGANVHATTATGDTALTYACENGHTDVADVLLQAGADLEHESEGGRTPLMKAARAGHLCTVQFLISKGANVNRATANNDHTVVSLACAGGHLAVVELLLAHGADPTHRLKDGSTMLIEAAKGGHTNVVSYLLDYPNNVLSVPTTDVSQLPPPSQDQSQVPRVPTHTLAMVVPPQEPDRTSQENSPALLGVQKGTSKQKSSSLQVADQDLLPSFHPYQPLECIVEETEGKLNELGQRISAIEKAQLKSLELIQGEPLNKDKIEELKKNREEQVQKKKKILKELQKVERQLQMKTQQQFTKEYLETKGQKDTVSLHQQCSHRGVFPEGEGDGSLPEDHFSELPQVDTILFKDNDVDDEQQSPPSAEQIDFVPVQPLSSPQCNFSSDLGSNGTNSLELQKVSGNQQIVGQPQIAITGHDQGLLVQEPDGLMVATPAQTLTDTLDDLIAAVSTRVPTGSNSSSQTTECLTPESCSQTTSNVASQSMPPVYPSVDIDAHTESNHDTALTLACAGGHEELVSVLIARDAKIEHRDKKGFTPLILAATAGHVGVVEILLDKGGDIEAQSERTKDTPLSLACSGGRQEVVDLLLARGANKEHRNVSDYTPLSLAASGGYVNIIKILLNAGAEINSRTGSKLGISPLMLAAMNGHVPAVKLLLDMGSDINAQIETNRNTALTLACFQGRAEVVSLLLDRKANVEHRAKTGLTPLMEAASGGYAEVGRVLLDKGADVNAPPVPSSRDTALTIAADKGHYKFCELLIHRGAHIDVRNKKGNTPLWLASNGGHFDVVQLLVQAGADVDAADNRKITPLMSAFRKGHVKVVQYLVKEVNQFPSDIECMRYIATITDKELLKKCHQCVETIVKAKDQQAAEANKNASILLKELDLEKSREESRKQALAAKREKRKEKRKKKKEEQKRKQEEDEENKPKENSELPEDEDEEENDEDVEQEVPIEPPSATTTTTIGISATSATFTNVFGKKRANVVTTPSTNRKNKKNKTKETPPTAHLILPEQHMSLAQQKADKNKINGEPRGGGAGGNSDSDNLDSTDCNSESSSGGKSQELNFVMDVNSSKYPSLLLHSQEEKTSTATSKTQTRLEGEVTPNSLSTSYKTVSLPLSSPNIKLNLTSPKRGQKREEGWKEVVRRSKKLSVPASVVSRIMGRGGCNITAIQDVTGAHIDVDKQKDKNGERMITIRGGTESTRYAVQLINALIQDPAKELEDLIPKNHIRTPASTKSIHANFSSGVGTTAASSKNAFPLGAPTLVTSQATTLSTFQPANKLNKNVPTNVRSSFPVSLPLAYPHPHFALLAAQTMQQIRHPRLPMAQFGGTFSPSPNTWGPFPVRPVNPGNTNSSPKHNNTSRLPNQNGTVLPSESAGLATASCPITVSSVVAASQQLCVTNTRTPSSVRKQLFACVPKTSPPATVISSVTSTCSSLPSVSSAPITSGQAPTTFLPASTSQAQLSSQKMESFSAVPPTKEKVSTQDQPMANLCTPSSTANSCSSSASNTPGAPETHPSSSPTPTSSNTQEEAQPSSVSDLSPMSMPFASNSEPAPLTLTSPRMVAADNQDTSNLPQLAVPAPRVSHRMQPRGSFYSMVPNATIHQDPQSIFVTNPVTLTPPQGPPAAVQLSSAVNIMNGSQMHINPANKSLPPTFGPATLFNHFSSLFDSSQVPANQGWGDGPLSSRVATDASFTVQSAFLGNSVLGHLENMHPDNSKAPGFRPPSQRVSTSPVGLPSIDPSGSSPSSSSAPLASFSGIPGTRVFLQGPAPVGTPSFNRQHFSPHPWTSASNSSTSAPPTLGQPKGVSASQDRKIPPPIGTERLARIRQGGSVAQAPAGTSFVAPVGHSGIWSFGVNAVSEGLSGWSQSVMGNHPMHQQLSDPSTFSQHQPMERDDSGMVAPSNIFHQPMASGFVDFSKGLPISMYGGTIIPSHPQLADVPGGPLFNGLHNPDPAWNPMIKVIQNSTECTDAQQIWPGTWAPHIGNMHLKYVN
UniProt Q86YP4: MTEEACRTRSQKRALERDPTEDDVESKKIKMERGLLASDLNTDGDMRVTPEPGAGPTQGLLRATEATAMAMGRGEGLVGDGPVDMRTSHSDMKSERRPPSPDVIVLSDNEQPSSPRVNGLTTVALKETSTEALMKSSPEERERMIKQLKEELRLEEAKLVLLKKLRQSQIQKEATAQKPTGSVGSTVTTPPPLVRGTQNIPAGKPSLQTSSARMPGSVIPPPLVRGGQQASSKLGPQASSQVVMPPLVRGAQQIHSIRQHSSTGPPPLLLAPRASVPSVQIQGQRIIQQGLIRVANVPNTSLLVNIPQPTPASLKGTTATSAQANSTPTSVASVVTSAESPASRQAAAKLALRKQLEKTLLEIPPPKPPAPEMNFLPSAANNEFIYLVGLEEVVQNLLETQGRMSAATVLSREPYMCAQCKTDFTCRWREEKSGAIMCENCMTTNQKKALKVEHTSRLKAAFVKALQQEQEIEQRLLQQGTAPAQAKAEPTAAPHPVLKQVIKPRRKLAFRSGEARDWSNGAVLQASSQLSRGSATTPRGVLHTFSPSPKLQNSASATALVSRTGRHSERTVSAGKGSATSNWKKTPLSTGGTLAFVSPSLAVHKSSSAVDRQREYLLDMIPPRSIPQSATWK
UniProt Q8IYA6: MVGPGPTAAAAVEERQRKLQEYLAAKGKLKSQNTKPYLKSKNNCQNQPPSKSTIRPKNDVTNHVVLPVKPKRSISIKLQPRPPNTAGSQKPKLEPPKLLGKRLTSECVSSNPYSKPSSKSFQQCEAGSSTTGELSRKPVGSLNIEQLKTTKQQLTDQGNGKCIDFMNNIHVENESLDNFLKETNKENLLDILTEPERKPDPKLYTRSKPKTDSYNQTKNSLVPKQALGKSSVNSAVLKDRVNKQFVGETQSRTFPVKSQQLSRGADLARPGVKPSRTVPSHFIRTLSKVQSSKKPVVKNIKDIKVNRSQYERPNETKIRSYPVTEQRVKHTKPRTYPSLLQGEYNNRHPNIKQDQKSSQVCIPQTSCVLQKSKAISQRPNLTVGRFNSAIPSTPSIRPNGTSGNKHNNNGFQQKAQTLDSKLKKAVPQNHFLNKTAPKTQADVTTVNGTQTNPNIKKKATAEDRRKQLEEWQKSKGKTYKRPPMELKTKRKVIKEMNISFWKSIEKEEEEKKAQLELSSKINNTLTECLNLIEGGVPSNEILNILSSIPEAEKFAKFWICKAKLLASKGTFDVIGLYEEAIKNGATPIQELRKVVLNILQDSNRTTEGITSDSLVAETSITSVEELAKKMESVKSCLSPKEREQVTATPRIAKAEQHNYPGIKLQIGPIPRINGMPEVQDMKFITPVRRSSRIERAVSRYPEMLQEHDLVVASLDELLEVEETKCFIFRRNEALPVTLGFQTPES
UniProt Q8IZ21: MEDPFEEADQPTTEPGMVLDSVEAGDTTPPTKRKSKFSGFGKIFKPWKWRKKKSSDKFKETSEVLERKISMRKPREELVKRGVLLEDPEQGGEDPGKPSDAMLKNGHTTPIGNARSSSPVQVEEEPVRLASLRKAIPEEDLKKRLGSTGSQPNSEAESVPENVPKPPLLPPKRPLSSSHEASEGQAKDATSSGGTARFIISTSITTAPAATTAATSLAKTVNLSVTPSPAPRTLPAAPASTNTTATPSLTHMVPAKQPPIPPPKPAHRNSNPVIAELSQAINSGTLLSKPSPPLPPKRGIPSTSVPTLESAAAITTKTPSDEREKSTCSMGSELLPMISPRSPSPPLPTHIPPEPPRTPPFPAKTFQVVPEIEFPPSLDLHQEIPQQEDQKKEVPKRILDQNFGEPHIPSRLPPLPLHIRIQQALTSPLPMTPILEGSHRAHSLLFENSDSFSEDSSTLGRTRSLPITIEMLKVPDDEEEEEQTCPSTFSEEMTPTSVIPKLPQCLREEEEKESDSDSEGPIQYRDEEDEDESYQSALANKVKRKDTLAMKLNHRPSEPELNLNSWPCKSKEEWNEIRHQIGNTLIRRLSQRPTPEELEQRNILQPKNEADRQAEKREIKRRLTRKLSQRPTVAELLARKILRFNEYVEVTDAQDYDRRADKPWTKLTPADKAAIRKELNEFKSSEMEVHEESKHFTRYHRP
UniProt Q8IUC6, whole entry: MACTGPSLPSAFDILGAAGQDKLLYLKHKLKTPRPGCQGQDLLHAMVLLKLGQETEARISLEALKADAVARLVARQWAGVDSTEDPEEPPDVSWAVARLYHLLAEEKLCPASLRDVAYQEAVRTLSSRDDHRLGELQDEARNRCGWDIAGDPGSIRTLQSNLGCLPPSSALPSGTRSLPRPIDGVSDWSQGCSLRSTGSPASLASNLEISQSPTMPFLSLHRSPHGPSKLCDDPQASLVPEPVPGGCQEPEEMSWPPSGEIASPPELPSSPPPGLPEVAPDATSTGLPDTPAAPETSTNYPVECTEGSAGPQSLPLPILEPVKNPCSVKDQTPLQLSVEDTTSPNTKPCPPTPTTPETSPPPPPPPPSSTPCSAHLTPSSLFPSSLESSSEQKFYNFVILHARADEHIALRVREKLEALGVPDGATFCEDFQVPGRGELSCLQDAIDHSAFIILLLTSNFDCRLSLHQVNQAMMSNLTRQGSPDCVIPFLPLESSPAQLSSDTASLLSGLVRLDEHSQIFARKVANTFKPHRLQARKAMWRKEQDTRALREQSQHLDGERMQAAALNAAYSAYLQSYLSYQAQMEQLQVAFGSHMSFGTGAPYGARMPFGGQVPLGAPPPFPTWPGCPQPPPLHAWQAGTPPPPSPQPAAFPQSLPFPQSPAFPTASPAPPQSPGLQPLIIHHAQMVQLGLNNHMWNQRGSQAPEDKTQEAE
UniProt Q8IYK4: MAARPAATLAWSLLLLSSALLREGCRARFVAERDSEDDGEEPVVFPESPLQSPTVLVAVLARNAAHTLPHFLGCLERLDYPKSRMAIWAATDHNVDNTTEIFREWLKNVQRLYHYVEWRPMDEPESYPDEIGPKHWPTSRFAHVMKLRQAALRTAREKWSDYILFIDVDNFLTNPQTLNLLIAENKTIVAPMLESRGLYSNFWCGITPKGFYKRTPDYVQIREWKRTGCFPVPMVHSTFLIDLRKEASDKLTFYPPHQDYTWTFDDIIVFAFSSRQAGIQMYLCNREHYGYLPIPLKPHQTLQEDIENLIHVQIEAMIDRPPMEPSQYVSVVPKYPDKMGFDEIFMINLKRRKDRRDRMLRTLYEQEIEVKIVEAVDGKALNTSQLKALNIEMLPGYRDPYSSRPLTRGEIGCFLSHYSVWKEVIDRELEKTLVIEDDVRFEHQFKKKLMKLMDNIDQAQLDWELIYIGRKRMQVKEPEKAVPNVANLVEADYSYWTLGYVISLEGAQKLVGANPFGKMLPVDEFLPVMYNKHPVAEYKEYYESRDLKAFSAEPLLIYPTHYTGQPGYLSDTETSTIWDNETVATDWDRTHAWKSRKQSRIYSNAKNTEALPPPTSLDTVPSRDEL

Compound: CN[C@@H]1C[C@H]2O[C@@](C)([C@@H]1OC)n1c3ccccc3c3c4c(c5c6ccccc6n2c5c31)C(=O)NC4 [staurosporine]
Experiment: log2 fold change of tryptic peptide abundance, ligand vs vehicle (limited proteolysis) (log2 ratio); higher = more trypsin-susceptible (destabilized)
Settings: ligand concentration: 20 uM; sample: K562 cleared lysate; digestion: 4 min, 22 C (HT-PELSA RT4min, Orbitrap Astral)

Target	log2 fold change
ERI1 (peptide sequence: KSYGNFYK, peptide start residue: 262) (UniProt Q8IV48)	0.476
APLF (peptide sequence: GPLLGITDK, peptide start residue: 28) (UniProt Q8IW19)	-0.122
ANKHD1 (peptide sequence: ANVVTTPSTNRK, peptide start residue: 1533) (UniProt Q8IWZ3)	0.401
GATAD2A (peptide sequence: EATAQKPTGSVGSTVTTPPPLVR, peptide start residue: 173) (UniProt Q86YP4)	0.454
CKAP2L (peptide sequence: INGMPEVQDMK, peptide start residue: 672) (UniProt Q8IYA6)	0.675
PHACTR4 (peptide sequence: RPLSSSHEASEGQAK, peptide start residue: 173) (UniProt Q8IZ21)	0.419
TICAM1 (peptide sequence: LSLHQVNQAMMSNLTR, peptide start residue: 464) (UniProt Q8IUC6)	0.128
CNTROB (peptide sequence: QLMEVSQLLR, peptide start residue: 803) (UniProt Q8N137)	-0.192
UniProt Q8IYK4 (peptide sequence: TPDYVQIR, peptide start residue: 215)	-0.179
